Data published in PMC10796436, “Peptidyl nitroalkene inhibitors of main protease rationalized by computational and crystallographic investigations as antivirals against SARS-CoV-2” (Communications Chemistry, 2024).
Read-outs that look alike come from different tables or passages of the source. The source gives many values for each of these; only a part stands here.

Target: M^pro (Severe acute respiratory syndrome coronavirus 2, UniProt P0DTD1)
Assay type: binding

With CC(C)C[C@H](NC(=O)OCc1ccccc1)C(=O)N[C@H](/C=C/[N+](=O)[O-])C[C@@H]1CCNC1=O [FGA147] the Fraction unfolded (25 mM, 20 °C) was 0.01414, the Fraction unfolded (25 mM, 20.5 °C) was 0.04278 and the Fraction unfolded (25 mM, 21 °C) was 0.01683. It also gave a Fraction unfolded (25 mM, 32.5 °C) of -0.03613, a Fraction unfolded (25 mM, 33 °C) of 0.01483 and a Fraction unfolded (25 mM, 33.5 °C) of 0.05004. It also gave a Fraction unfolded (25 mM, 34 °C) of 0.01192, a Fraction unfolded (25 mM, 34.5 °C) of -0.01503 and a Fraction unfolded (25 mM, 35 °C) of -0.01349. The Fraction unfolded (25 mM, 35.5 °C) was -0.01483, the Fraction unfolded (25 mM, 36 °C) was 0.01414 and the Fraction unfolded (25 mM, 36.5 °C) was -0.01034. For the same compound, the Fraction unfolded (25 mM, 37 °C) was 0.01683, the Fraction unfolded (25 mM, 37.5 °C) was 0.04278 and the Fraction unfolded (25 mM, 38 °C) was 0.07148. For the same compound, the Fraction unfolded (25 mM, 38.5 °C) was -0.01421, the Fraction unfolded (25 mM, 39 °C) was -0.05389 and the Fraction unfolded (25 mM, 39.5 °C) was -0.01968. The Fraction unfolded (25 mM, 40 °C) was 0.09885, the Fraction unfolded (25 mM, 40.5 °C) was 0.01751 and the Fraction unfolded (25 mM, 41 °C) was -0.01678. For the same compound, the Fraction unfolded (25 mM, 41.5 °C) was 0.1948, the Fraction unfolded (25 mM, 42 °C) was 0.138 and the Fraction unfolded (25 mM, 42.5 °C) was 0.09827. It also gave a Fraction unfolded (25 mM, 43 °C) of 0.1578, a Fraction unfolded (25 mM, 43.5 °C) of 0.2799 and a Fraction unfolded (25 mM, 44 °C) of 0.2792. For the same compound, the Fraction unfolded (25 mM, 44.5 °C) was 0.4175, the Fraction unfolded (25 mM, 45 °C) was 0.2379 and the Fraction unfolded (25 mM, 45.5 °C) was 0.3457. The Fraction unfolded (25 mM, 46 °C) was 0.4723, the Fraction unfolded (25 mM, 46.5 °C) was 0.5358 and the Fraction unfolded (25 mM, 47 °C) was 0.6206. For the same compound, the Fraction unfolded (25 mM, 47.5 °C) was 0.6097, the Fraction unfolded (25 mM, 48 °C) was 0.6107 and the Fraction unfolded (25 mM, 48.5 °C) was 0.7639. For the same compound, the Fraction unfolded (25 mM, 49 °C) was 0.8307, the Fraction unfolded (25 mM, 49.5 °C) was 0.9672 and the Fraction unfolded (25 mM, 50 °C) was 0.8593. It also gave a Fraction unfolded (25 mM, 50.5 °C) of 0.8947, a Fraction unfolded (25 mM, 51 °C) of 0.8707 and a Fraction unfolded (25 mM, 51.5 °C) of 0.9572. For the same compound, the Fraction unfolded (25 mM, 52 °C) was 0.9094, the Fraction unfolded (25 mM, 52.5 °C) was 0.9702 and the Fraction unfolded (25 mM, 53 °C) was 0.8904. For the same compound, the Fraction unfolded (25 mM, 53.5 °C) was 0.9069, the Fraction unfolded (25 mM, 54 °C) was 0.9966 and the Fraction unfolded (25 mM, 54.5 °C) was 0.9681. The Fraction unfolded (25 mM, 55 °C) was 1.053, the Fraction unfolded (25 mM, 55.5 °C) was 0.9786 and the Fraction unfolded (25 mM, 56 °C) was 1.017. For the same compound, the Fraction unfolded (25 mM, 56.5 °C) was 1.052, the Fraction unfolded (25 mM, 57 °C) was 0.9706 and the Fraction unfolded (25 mM, 57.5 °C) was 1.006. It also gave a Fraction unfolded (25 mM, 58 °C) of 0.9637, a Fraction unfolded (25 mM, 58.5 °C) of 1.043 and a Fraction unfolded (25 mM, 59 °C) of 0.9975. The Fraction unfolded (25 mM, 59.5 °C) was 1.025, the Fraction unfolded (25 mM, 60 °C) was 1.003 and the Fraction unfolded (25 mM, 60.5 °C) was 1.081. For the same compound, the Fraction unfolded (25 mM, 61 °C) was 1.0453, the Fraction unfolded (25 mM, 61.5 °C) was 0.9925 and the Fraction unfolded (25 mM, 62 °C) was 1.0196. For the same compound, the Fraction unfolded (25 mM, 62.5 °C) was 0.9435, the Fraction unfolded (25 mM, 63 °C) was 1.003 and the Fraction unfolded (25 mM, 63.5 °C) was 0.9848. The Fraction unfolded (25 mM, 64 °C) was 1.005, the Fraction unfolded (25 mM, 64.5 °C) was 0.9404 and the Fraction unfolded (25 mM, 65 °C) was 1.075. The Fraction unfolded (25 mM, 65.5 °C) was 1.061, the Fraction unfolded (25 mM, 66 °C) was 1.164 and the Fraction unfolded (100 mM, 20 °C) was 0.06732. The Fraction unfolded (100 mM, 20.5 °C) was -0.02735, the Fraction unfolded (100 mM, 21 °C) was 0.01656 and the Fraction unfolded (100 mM, 32.5 °C) was 0.01094. It also gave a Fraction unfolded (100 mM, 33 °C) of 0.02167, a Fraction unfolded (100 mM, 33.5 °C) of -0.03337 and a Fraction unfolded (100 mM, 34 °C) of -0.04925. For the same compound, the Fraction unfolded (100 mM, 34.5 °C) was -0.01302, the Fraction unfolded (100 mM, 35 °C) was 0.0174 and the Fraction unfolded (100 mM, 35.5 °C) was 0.07455. For the same compound, the Fraction unfolded (100 mM, 36 °C) was -0.07318, the Fraction unfolded (100 mM, 36.5 °C) was 0.02179 and the Fraction unfolded (100 mM, 37 °C) was -0.00134. For the same compound, the Fraction unfolded (100 mM, 37.5 °C) was 0.02966, the Fraction unfolded (100 mM, 38 °C) was 0.1339 and the Fraction unfolded (100 mM, 38.5 °C) was 0.1915. For the same compound, the Fraction unfolded (100 mM, 39 °C) was 0.2438, the Fraction unfolded (100 mM, 39.5 °C) was 0.2709 and the Fraction unfolded (100 mM, 40 °C) was 0.1422. It also gave a Fraction unfolded (100 mM, 40.5 °C) of 0.1739, a Fraction unfolded (100 mM, 41 °C) of 0.163 and a Fraction unfolded (100 mM, 41.5 °C) of 0.3283. It also gave a Fraction unfolded (100 mM, 42 °C) of 0.2639, a Fraction unfolded (100 mM, 42.5 °C) of 0.3713 and a Fraction unfolded (100 mM, 43 °C) of 0.4067. The Fraction unfolded (100 mM, 43.5 °C) was 0.4356, the Fraction unfolded (100 mM, 44 °C) was 0.4743 and the Fraction unfolded (100 mM, 44.5 °C) was 0.5054. It also gave a Fraction unfolded (100 mM, 45 °C) of 0.5092, a Fraction unfolded (100 mM, 45.5 °C) of 0.5279 and a Fraction unfolded (100 mM, 46 °C) of 0.4652. For the same compound, the Fraction unfolded (100 mM, 46.5 °C) was 0.6925, the Fraction unfolded (100 mM, 47 °C) was 0.5814 and the Fraction unfolded (100 mM, 47.5 °C) was 0.7855. For the same compound, the Fraction unfolded (100 mM, 48 °C) was 0.683, the Fraction unfolded (100 mM, 48.5 °C) was 0.722 and the Fraction unfolded (100 mM, 49 °C) was 0.6909. For the same compound, the Fraction unfolded (100 mM, 49.5 °C) was 0.757, the Fraction unfolded (100 mM, 50 °C) was 0.8623 and the Fraction unfolded (100 mM, 50.5 °C) was 0.7537. For the same compound, the Fraction unfolded (100 mM, 51 °C) was 0.8327, the Fraction unfolded (100 mM, 51.5 °C) was 0.7454 and the Fraction unfolded (100 mM, 52 °C) was 0.777. It also gave a Fraction unfolded (100 mM, 52.5 °C) of 0.8218, a Fraction unfolded (100 mM, 53 °C) of 0.9065 and a Fraction unfolded (100 mM, 53.5 °C) of 0.8925. It also gave a Fraction unfolded (100 mM, 54 °C) of 0.8755, a Fraction unfolded (100 mM, 54.5 °C) of 0.9263 and a Fraction unfolded (100 mM, 55 °C) of 0.8788. It also gave a Fraction unfolded (100 mM, 55.5 °C) of 0.8013, a Fraction unfolded (100 mM, 56 °C) of 0.9614 and a Fraction unfolded (100 mM, 56.5 °C) of 0.8401. It also gave a Fraction unfolded (100 mM, 57 °C) of 0.9037, a Fraction unfolded (100 mM, 57.5 °C) of 0.9507 and a Fraction unfolded (100 mM, 58 °C) of 0.9987. The Fraction unfolded (100 mM, 58.5 °C) was 0.9049, the Fraction unfolded (100 mM, 59 °C) was 1.003 and the Fraction unfolded (100 mM, 59.5 °C) was 0.9407. For the same compound, the Fraction unfolded (100 mM, 60 °C) was 0.94, the Fraction unfolded (100 mM, 60.5 °C) was 0.9111 and the Fraction unfolded (100 mM, 61 °C) was 0.8667. It also gave a Fraction unfolded (100 mM, 61.5 °C) of 1.014, a Fraction unfolded (100 mM, 62 °C) of 0.8397 and a Fraction unfolded (100 mM, 62.5 °C) of 0.9585. For the same compound, the Fraction unfolded (100 mM, 63 °C) was 0.9981, the Fraction unfolded (100 mM, 63.5 °C) was 1.02 and the Fraction unfolded (100 mM, 64 °C) was 0.9117. For the same compound, the Fraction unfolded (100 mM, 64.5 °C) was 0.9013, the Fraction unfolded (100 mM, 65 °C) was 1.068 and the Fraction unfolded (100 mM, 65.5 °C) was 0.9619. For the same compound, the Fraction unfolded (100 mM, 66 °C) was 0.8741.
